Results: the supplement of paper PMC6411743
± gives the standard deviation of the averaged measurements. The list shows a part of the results, in another mix than the full data.

The chains behind the UniProt entries cited, without tags or fusion partners. Where a name states a change or a piece, a line headed by the entry shows the natural chain unless it says otherwise.
UniProt Q96FX2: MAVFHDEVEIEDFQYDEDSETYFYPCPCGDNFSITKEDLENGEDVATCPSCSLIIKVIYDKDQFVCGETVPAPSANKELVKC
UniProt Q96N46: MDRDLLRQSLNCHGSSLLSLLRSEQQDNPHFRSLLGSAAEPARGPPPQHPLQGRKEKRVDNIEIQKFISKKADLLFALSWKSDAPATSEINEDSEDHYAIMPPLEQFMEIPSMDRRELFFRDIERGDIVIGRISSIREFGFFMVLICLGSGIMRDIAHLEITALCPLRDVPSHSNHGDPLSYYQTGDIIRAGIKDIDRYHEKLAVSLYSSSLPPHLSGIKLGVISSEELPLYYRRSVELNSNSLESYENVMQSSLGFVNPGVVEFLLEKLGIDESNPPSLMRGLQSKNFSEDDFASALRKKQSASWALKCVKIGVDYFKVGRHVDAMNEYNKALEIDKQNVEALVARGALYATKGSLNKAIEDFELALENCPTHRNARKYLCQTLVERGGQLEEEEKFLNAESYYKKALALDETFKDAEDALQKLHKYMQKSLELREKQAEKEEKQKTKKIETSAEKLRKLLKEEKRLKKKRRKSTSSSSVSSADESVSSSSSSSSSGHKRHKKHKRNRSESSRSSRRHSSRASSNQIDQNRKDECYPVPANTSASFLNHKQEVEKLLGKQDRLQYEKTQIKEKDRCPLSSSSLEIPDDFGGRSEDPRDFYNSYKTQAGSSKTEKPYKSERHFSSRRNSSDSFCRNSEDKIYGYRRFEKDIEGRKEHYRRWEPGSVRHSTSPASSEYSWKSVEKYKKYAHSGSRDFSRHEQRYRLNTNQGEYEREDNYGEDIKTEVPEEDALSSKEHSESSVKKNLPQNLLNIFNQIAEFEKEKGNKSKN
UniProt Q96JJ7: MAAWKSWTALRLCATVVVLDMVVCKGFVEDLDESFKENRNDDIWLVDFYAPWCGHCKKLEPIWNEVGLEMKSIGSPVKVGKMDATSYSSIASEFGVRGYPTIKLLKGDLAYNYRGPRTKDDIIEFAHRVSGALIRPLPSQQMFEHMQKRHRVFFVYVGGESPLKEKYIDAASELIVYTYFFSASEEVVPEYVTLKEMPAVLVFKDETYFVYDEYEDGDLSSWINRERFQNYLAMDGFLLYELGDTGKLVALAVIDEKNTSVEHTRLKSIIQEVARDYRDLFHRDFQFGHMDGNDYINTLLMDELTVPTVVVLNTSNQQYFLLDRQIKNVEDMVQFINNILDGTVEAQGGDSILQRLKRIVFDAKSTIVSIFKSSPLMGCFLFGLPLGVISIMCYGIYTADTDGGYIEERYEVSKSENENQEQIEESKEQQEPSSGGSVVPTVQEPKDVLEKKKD
UniProt Q96MX6, whole entry: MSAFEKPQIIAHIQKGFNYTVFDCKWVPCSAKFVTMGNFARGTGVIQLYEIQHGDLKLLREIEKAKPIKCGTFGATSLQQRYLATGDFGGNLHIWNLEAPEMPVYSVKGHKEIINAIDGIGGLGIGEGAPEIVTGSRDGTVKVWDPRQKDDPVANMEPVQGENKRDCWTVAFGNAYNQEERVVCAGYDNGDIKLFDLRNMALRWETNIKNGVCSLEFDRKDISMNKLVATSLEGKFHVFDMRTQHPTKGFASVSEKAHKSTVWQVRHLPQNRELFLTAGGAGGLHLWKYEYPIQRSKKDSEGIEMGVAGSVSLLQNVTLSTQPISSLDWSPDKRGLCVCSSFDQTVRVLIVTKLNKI
UniProt Q96KC2: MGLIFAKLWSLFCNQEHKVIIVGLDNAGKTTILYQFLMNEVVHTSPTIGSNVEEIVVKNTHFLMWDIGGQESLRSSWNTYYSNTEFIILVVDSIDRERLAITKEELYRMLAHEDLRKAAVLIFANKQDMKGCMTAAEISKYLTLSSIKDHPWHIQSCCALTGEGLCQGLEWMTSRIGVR
UniProt Q96PM5: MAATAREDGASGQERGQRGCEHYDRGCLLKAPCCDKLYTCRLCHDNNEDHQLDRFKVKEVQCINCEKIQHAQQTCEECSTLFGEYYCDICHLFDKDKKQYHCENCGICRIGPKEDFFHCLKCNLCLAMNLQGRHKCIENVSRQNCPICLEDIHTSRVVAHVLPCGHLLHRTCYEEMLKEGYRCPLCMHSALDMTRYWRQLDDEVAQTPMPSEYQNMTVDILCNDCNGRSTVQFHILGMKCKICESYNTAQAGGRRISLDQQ
UniProt Q96D71: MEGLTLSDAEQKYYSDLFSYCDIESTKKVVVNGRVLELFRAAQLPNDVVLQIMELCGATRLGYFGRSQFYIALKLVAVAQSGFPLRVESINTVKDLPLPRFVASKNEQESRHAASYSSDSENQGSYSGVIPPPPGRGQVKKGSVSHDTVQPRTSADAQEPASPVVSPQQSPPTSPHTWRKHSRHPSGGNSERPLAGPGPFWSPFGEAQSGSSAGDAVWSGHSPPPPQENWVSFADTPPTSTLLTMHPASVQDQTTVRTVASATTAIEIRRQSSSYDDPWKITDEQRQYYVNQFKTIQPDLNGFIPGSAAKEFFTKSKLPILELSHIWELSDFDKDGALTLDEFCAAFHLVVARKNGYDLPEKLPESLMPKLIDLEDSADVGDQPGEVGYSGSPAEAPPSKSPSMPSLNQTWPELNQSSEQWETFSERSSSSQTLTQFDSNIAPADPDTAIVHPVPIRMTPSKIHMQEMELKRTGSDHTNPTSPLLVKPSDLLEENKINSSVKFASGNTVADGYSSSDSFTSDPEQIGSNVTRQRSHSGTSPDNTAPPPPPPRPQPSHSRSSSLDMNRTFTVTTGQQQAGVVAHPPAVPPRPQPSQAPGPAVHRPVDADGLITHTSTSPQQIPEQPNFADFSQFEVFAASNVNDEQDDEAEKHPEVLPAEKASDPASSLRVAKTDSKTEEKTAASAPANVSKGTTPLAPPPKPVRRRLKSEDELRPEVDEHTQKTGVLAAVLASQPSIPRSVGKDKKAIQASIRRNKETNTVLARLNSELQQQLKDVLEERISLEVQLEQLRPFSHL
UniProt Q96S66: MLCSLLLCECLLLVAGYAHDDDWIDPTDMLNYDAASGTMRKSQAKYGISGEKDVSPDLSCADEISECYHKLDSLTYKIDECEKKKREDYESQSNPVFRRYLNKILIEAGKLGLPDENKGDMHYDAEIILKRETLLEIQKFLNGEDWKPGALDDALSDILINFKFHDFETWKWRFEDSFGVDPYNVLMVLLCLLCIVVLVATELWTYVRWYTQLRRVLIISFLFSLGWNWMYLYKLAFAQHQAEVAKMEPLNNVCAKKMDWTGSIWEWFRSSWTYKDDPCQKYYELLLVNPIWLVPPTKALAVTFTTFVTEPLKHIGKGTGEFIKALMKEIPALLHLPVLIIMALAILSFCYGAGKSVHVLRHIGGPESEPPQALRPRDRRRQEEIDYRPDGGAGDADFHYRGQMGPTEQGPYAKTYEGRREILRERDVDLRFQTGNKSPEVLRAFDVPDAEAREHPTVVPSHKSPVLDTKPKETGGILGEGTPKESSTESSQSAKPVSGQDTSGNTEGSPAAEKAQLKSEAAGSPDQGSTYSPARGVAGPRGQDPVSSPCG
UniProt Q96F63: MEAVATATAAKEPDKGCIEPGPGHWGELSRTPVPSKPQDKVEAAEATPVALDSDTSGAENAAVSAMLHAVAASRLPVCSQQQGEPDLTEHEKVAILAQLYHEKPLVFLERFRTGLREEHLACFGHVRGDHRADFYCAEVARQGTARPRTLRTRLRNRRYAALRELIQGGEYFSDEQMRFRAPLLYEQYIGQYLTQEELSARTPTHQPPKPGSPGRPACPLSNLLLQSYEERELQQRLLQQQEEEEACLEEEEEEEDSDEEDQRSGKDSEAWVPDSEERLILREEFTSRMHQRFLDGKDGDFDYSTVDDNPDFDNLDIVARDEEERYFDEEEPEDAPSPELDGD
UniProt Q96HY7: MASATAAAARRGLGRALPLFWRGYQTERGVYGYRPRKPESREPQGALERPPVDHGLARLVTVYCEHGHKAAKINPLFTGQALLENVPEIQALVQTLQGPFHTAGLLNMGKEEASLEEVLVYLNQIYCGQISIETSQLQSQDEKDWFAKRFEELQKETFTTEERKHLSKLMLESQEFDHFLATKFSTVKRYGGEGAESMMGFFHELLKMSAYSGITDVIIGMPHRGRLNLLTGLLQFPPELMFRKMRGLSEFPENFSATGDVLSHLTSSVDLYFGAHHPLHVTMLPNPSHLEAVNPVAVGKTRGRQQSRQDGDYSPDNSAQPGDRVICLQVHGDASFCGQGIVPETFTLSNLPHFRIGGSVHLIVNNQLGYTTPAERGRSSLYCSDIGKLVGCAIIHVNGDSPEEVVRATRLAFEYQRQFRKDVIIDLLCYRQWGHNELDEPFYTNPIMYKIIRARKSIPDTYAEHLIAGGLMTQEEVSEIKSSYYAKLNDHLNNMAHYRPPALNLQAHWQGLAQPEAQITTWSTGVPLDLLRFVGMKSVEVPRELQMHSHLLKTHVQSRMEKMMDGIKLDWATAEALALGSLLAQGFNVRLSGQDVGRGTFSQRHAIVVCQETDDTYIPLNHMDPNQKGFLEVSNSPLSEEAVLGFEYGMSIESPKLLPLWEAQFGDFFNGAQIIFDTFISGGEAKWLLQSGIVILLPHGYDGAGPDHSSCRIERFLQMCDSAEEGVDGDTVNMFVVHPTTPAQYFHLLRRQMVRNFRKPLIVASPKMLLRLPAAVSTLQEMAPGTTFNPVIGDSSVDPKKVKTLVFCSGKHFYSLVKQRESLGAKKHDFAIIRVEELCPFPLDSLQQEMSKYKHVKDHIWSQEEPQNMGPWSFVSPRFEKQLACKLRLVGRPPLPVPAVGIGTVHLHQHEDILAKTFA
UniProt Q96IZ6: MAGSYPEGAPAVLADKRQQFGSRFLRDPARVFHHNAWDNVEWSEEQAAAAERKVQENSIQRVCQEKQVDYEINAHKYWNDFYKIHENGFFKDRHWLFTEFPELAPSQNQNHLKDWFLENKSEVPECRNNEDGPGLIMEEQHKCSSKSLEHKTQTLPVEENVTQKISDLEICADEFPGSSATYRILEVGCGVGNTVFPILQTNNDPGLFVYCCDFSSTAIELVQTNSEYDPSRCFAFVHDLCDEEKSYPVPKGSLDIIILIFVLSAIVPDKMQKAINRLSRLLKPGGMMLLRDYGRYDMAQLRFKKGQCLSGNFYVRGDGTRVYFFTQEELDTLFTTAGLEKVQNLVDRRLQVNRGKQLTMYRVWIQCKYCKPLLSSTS
UniProt Q96ER9: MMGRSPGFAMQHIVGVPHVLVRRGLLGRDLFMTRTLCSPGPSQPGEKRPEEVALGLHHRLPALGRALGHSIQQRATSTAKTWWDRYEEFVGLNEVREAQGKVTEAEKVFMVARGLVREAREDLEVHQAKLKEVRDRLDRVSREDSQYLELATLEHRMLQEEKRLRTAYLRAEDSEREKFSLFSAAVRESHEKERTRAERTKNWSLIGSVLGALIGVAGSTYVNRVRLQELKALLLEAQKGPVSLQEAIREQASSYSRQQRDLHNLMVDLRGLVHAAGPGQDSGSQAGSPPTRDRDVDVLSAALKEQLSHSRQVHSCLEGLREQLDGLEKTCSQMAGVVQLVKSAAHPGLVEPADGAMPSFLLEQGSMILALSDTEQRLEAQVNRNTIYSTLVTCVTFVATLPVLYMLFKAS
UniProt Q96S55: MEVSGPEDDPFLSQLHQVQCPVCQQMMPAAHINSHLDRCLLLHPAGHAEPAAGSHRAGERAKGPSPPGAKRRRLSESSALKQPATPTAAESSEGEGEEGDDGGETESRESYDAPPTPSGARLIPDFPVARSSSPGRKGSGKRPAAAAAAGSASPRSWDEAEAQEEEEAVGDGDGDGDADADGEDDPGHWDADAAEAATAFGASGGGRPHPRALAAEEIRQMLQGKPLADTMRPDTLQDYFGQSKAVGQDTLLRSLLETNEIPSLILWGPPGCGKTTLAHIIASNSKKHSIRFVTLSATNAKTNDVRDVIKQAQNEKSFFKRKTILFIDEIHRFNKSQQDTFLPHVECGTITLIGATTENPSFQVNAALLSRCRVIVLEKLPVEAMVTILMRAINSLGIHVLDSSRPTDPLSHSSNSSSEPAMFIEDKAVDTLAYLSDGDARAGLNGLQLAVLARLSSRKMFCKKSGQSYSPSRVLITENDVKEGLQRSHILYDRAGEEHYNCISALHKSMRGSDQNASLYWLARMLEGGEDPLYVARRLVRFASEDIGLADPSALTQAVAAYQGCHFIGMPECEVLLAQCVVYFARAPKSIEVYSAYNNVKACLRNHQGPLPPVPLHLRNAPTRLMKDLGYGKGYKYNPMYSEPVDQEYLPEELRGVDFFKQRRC
UniProt Q96FX7: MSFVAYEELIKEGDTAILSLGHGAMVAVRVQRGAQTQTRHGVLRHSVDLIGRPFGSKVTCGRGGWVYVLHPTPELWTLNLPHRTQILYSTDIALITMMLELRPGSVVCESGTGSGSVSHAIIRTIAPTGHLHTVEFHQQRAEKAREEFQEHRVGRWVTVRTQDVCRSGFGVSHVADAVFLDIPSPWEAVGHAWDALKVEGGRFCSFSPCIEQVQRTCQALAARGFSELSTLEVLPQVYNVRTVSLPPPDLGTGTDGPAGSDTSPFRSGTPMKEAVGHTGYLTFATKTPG

Compound: Nc1ncnc2c1ncn2[C@@H]1O[C@H](COP(=O)(O)OP(=O)(O)OP(=O)(O)O)[C@@H](O)[C@H]1O [adenosine triphosphate]
Assay: NP40-soluble protein abundance relative to vehicle (solubility fold change) (ratio); higher = more soluble protein in presence of ATP
Conditions: concentration: 4mM
How it was run: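 Eight concentrations, 0.1 to 10 mM, were tested on Jurkat crude lysate for 10 min at room temperature and then 3 min at 37 °C, in three independent experiments. The lysate was solubilised with 0.8% NP40 and benzonase, ultracentrifuged, and the supernatant TMT-labelled for LC-MS/MS. Each value is the fold change against the detergent-processed vehicle in its own replicate, from vsn-normalised intensities.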

Row | Target | NP40-soluble protein abundance
1 | UniProt Q96DZ1 and related entries | 0.986 ± 0.06
2 | UniProt Q96RQ3 and related entries | 1.01 ± 0.023
3 | UHRF2 (UniProt Q96PU4) | 1.04 ± 0.044
4 | TUBGCP3 (UniProt Q96CW5) | 1.06 ± 0.079
5 | PTCD3 (UniProt Q96EY7) | 0.959 ± 0.096
6 | UniProt Q96CS2 | 1 ± 0.087
7 | AJUBA (UniProt Q96IF1) | 1.02 ± 0.17
8 | DPH3 (UniProt Q96FX2) | 0.981 ± 0.056
9 | UniProt Q96N46 and related entries | 1.06 ± 0.19
10 | UniProt Q96JJ7 | 0.999 ± 0.028
11 | MMAB (UniProt Q96EY8) | 1 ± 0.035
12 | WDR92 (UniProt Q96MX6) | 1.01 ± 0.056
13 | UniProt Q96KC2 | 0.957 ± 0.048
14 | UniProt Q96PM5 and related entries | 1.03 ± 0.062
15 | MCEE (UniProt Q96PE7) | 0.93 ± 0.035
16 | PDLIM5 (UniProt Q96HC4) | 0.994 ± 0.061
17 | UniProt Q96ST2 and related entries | 0.708 ± 0.026
18 | UniProt Q96D71 and related entries | 1.06 ± 0.046

Row | Target | NP40-soluble protein abundance
19 | UniProt Q96S66 and related entries | 0.976 ± 0.043
20 | UniProt Q96JG6 | 0.993 ± 0.053
21 | EAF1 (UniProt Q96JC9) | 0.879 ± 0.043
22 | UniProt Q96IJ6 and related entries | 0.98 ± 0.039
23 | ANKRD27 (UniProt Q96NW4) | 1.01 ± 0.049
24 | SNRNP40 (UniProt Q96DI7) | 1.28 ± 0.069
25 | CCDC97 (UniProt Q96F63) | 0.959 ± 0.072
26 | UniProt Q96K58 and related entries | 1.04 ± 0.029
27 | UniProt Q96G23 | 0.951 ± 0.034
28 | DHTKD1 (UniProt Q96HY7) | 1.04 ± 0.066
29 | OPTN (UniProt Q96CV9) | 0.961 ± 0.038
30 | METTL2A (UniProt Q96IZ6) | 0.914 ± 0.099
31 | CCDC51 (UniProt Q96ER9) | 0.983 ± 0.021
32 | UniProt Q96S55 and related entries | 0.999 ± 0.054
33 | NSL1 (UniProt Q96IY1) | 0.937 ± 0.014
34 | TRMT61A (UniProt Q96FX7) | 1.01 ± 0.03
35 | PANX1 (UniProt Q96RD7) | 0.947 ± 0.03

Same assay, conditions: concentration: 6mM

Row | Target | NP40-soluble protein abundance
36 | UniProt Q96DZ1 and related entries | 0.98 ± 0.072
37 | UniProt Q96RQ3 and related entries | 0.987 ± 0.076
38 | UHRF2 (UniProt Q96PU4) | 1.022 ± 0.0055
39 | TUBGCP3 (UniProt Q96CW5) | 1.03 ± 0.17
40 | PTCD3 (UniProt Q96EY7) | 0.88 ± 0.14
41 | UniProt Q96CS2 | 0.987 ± 0.22
42 | AJUBA (UniProt Q96IF1) | 0.993 ± 0.04
43 | DPH3 (UniProt Q96FX2) | 1.03 ± 0.19
44 | UniProt Q96N46 and related entries | 1.13 ± 0.17
45 | UniProt Q96JJ7 | 0.924 ± 0.083
46 | MMAB (UniProt Q96EY8) | 1.02 ± 0.037
47 | WDR92 (UniProt Q96MX6) | 0.973 ± 0.039
48 | UniProt Q96KC2 | 0.973 ± 0.12
49 | UniProt Q96PM5 and related entries | 1.03 ± 0.07
50 | MCEE (UniProt Q96PE7) | 0.937 ± 0.069
51 | PDLIM5 (UniProt Q96HC4) | 0.999 ± 0.045
52 | UniProt Q96ST2 and related entries | 0.634 ± 0.018
53 | UniProt Q96D71 and related entries | 1.07 ± 0.064

Row | Target | NP40-soluble protein abundance
54 | UniProt Q96S66 and related entries | 0.984 ± 0.048
55 | UniProt Q96JG6 | 0.967 ± 0.084
56 | EAF1 (UniProt Q96JC9) | 0.966 ± 0.11
57 | UniProt Q96IJ6 and related entries | 0.984 ± 0.07
58 | ANKRD27 (UniProt Q96NW4) | 1 ± 0.09
59 | SNRNP40 (UniProt Q96DI7) | 1.35 ± 0.089
60 | CCDC97 (UniProt Q96F63) | 0.969 ± 0.076
61 | UniProt Q96K58 and related entries | 1.08 ± 0.08
62 | UniProt Q96G23 | 0.89 ± 0.1
63 | DHTKD1 (UniProt Q96HY7) | 0.989 ± 0.068
64 | OPTN (UniProt Q96CV9) | 0.958 ± 0.051
65 | METTL2A (UniProt Q96IZ6) | 0.947 ± 0.12
66 | CCDC51 (UniProt Q96ER9) | 0.997 ± 0.013
67 | UniProt Q96S55 and related entries | 1.02 ± 0.073
68 | NSL1 (UniProt Q96IY1) | 0.94 ± 0.016
69 | TRMT61A (UniProt Q96FX7) | 0.978 ± 0.068
70 | PANX1 (UniProt Q96RD7) | 0.993 ± 0.055
